Results published in patent publication WO2015103549A1.
These are yes or no findings as the source states them, for the method shown. For part of these data: Binding calls can cover weak binding; strength is not graded here.

What was measured:
[1] = target: Sjogren's syndrome antigen A; test: condition: A positive response is >120 units; 50, 25, 12.5 and 6.25 ug/ml assayed; Luminex AtheNA Multi-Lyte ANA test
[2] = target: ribonucleoprotein; test: as above
[3] = target: HIV 96ZM651 (clade C) gp120 (HIV-1); test: ELISA, antigen coated at 2 ug/ml
[4] = target: HIV CN54 (clade C) gp120 (HIV-1); test: ELISA, antigen coated at 2 ug/ml
[5] = target: HIV CN54 (clade C) gp140 monomer (HIV-1); test: ELISA, antigen coated at 2 ug/ml
[6] = target: HIV JRFL Env on VLPs (HIV-1); test: ELISA on HIVJRFL VLPs

B1: 35022 antibody (antibody, V domains shown)
VH: QGQLVQSGAELKKPGASVKISCKTSGYRFNFYHINWIRQTAGRGPEWMGWISPYSGDKNLAPAFQDRVIMTTDTEVPVTSFTSTGAAYMEIRNLKFDDTGTYFCAKGLLRDGSSTWLPYLWGQGTLLTVSS
VL: QSVLTQSASVSGSLGQSVTISCTGPNSVCCSHKSISWYQWPPGRAPTLIIYEDNERAPGISPRFSGYKSYWSAYLTISDLRPEDETTYYCCSYTHNSGCVFGTGTKVSVL
- binding [1]: no binding
- binding [2]: no binding
- binding [3]: no binding
- binding [4]: no binding
- binding [5]: no binding
- binding [6]: binds
